Here are results for one substance from paper PMC4895718.

Amino acid sequences for entries named in this document (tags omitted).
UniProt P08050: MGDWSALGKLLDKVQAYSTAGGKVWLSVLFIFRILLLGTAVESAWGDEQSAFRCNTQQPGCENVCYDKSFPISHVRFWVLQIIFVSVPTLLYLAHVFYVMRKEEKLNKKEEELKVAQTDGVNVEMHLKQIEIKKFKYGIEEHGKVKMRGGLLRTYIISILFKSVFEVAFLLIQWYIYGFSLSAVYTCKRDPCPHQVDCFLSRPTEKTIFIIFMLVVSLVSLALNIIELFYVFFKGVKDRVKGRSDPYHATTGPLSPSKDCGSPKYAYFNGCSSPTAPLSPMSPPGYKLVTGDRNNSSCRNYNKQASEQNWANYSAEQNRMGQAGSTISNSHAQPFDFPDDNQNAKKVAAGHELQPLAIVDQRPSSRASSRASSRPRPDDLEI

No constants are given. Whether binding was seen depends on the method and setting. Some entries that bind do so weakly or less than the wild type.

This assay has as its target Connexin 43 (Cx43), endogenous in neonatal rat ventricular myocytes (NRVMs) (rat (endogenous in NRVMs)) (UniProt P08050). In words: SEC; 1% Triton X-100-solubilised NRVM homogenate on TSK-GEL G2000SWXL, 20 mM phosphate buffer pH 7.0, 1 ml/min; fractions by SDS-PAGE and immunoblot; control and Lrp6 knockdown cells. Background: Size exclusion chromatography separates by hydrodynamic size, large species first.

“Connexin 43 (Cx43), endogenous in neonatal rat ventricular myocytes (NRVMs) (from UniProt P08050 1-382)”: the binding result is on record as “binds”.
